Measurements: publication PMC6396024, “Artemin and an Artemin-Derived Peptide, Artefin, Induce Neuronal Survival, and Differentiation Through Ret and NCAM” (Frontiers in Molecular Neuroscience, 2019)
No constants are given. Whether binding was seen depends on the method and setting. Some binding calls cover weakened binding; strength is not graded here. Where a sequence is shown, tags or fusion partners need not be part of it.

Columns and labels:
GFRa1/Fc = target: T1, GFRa1/Fc (UniProt P56159); assay: SPR; reverse binding experiment: GFRa1/Fc and GFRa2/Fc (0.113 μM) immobilised on a CM4 chip; artefin (15.6 μM) injected; Biacore 2000, 25°C, HBS-EP; both purified
T1 sequence: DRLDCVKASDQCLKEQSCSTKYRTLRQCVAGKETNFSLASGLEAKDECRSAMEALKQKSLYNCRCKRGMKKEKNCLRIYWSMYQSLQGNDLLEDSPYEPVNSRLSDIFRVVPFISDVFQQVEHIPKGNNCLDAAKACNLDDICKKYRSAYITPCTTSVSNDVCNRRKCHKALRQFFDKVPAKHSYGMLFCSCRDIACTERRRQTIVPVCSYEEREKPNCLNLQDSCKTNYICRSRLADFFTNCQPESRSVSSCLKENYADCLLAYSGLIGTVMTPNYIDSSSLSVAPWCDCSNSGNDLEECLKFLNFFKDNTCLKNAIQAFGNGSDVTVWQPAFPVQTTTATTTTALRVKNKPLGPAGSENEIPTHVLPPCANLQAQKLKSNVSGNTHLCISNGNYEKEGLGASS

GFRa2/Fc = target: T2, GFRa2/Fc (UniProt O00451); assay: as above
T2 sequence: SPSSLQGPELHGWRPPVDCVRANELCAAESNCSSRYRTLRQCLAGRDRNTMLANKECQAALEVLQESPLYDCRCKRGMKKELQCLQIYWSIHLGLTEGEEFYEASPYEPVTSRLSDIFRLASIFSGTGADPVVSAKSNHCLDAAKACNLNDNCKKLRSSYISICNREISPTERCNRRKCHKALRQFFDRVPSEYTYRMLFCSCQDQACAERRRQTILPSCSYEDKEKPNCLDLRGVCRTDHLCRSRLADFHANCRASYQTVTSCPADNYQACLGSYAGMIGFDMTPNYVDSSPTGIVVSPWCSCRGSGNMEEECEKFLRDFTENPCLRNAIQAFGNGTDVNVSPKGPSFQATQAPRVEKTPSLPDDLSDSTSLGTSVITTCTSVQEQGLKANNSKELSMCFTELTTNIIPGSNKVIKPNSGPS

RSPHDLSLASLLGAG (four monomers coupled to a lysine backbone (tetramer)) [artefin, ARTN-derived peptide synthesized as a tetramer (dendrimer) on a lysine backbone]
binding (GFRa1/Fc): binds | binding (GFRa2/Fc): binds
